From patent publication US5449673A, “10,11-dihydro-10-(3-substituted-1-oxo-2-propyl, propenyl or propynyl)dibenz[b,f][1,4] oxazepine prostaglandin antagonists” (G. D. Searle & Co., priority 1994, dated 1995)
At least one compound was matched to its structure with a doubt left. Some entries repeat one wording, which the source may state once for all of them.

System: mice
Test: PBQ Writhing Assay (analgesia in mice)
Type: in vivo, mouse (Charles River male albino mice)
Conditions: more potent compounds tested
From the text: The Writhing Assay is one of the most widely-used experimental procedures for measuring the analgesic activity of different narcotic and nonnarcotic analgesic agents, and involves the continuous, chemically-induced pain of visceral origin to an animal, such as a mouse or rat. [Gyires et al., Arch. int. Pharmacodyn, 267, 131-140 (1984); C. Vander Wende et al., Fed. Proc., 15, 494 (1956); Koster et al., Fed. Proc., 18, 412 (1959); and Witken et al., J. Pharmacol. exp. Ther., 133, 400-408 (1961).] Chemicals which may be used to induce this pain include phenylbenzoquinone (PBQ) and acetic acid. […]
Five minutes later, each mouse was individually placed into a glass beaker for observation, and the number of writhes occurring during the following tenminute period was counted.
A test compound was considered to have produced analgesia in a mouse if, in accordance with the conditions set forth above, and under the test criteria employed for this assay, after the administration of 30 mg per kilogram of body weight of a compound of the present invention to the mouse, the number of writhes elicited by a mouse injected with PBQ was equal to, or less than, one-half the median number of writhes recorded for the saline-treated control group of mice that day, as described by Taber in "Predictive Value of Analgesic Assays in Mice and Rats," Advances in Biochemical Psychopharmacology, 8, 191 (1974). […]

Question: Which “rank order of potency in the Writhing Assay” value does the source give for `CCCCCC(C)(O)/C=C/C(=O)N1Cc2ccccc2Oc2ccc(Cl)cc21` (stereo not shown) [Example 9, 8-chloro-10,11-dihydro-10-(4-hydroxy-4-methyl-1-oxo-2E-nonenyl)dibenz[b,f][1,4]oxazepine] here?
Answer: Example 17 > Example 9 > Example 4 > Example 8 > Example 5 > Example 12
